From PubChem BioAssay AID2685 (National Center for Advancing Translational Sciences (NCATS), 2010)
Hit rate of the full screen: of about 320,000 compounds, about 2,100 (0.66%) were called active. The shares of active, inactive and inconclusive entries below differ from those in the screen. Calls follow the shape of the dose curve; as a rule, active = well fitted inhibition curve with a large enough effect in the signal ratio, with a control signal flat (not every such curve was filed as active); inconclusive = small, poorly fitted or top-dose-only effect, or effect the other way, or a change in a side signal; inactive = flat fitted curve, though single readings scatter; the % refers to the signal ratio. A potency beside an inconclusive call is a rough fit, not a confirmed value.

Assay: qHTS Assay for Lipid Storage Modulators in Drosophila S3 Cells
Conditions: BODIPY lipid droplet fluorescence, 18-24 h, cells fed with added oleic acid; lipid storage change, negative = inhibition: at 46.1 µM (top of the series) unless noted
In short: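 Drosophila S3 cells got compounds at several concentrations plus oleic acid (400 uM solution). Laser-scanning cytometry with 488 nm excitation read lipid droplets at 500-530 nm and cells at 575-640 nm. Percent activity was relative to 20 uM Triacsin C.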
% is scaled to controls: 0 for no effect and ±100 for the full control effect; potency is read from the fitted curve at half-maximal effect.

Question: With `COc1ccc(Cl)cc1N(CC(=O)N1CCN(Cc2ccccc2)CC1)S(C)(=O)=O` as the compound, how does the lipid storage change, negative = inhibition read?
Answer: inconclusive: 14%

Question: Which lipid storage change, negative = inhibition does the source give for `COc1cccc(Cn2nnc(C(=O)NCc3ccc4c(c3)OCO4)c2N)c1` here?
Answer: inconclusive: 11.4%

Question: With `COC(=O)c1ccc(N(CC(=O)NC2CCCC2)C(=O)CNC(=O)c2cccs2)cc1` as the compound, how does the lipid storage change, negative = inhibition read?
Answer: inconclusive: -32.1%

Question: With `Cc1ccc(-c2cccc(C(=O)NCc3ccccc3)n2)c2ccccc12` as the compound, how does the lipid storage change, negative = inhibition read?
Answer: inconclusive: 46.1%

Question: Which lipid storage change, negative = inhibition does the source give for `CCC(C(=O)OCC(=O)Nc1cccc(C(C)=O)c1)c1ccccc1` (stereo unspecified) here?
Answer: inconclusive: -12.6%

Question: For `CC(=O)N(C)c1ccc(OCC(O)Cn2c3ccc(Cl)cc3c3cc(Cl)ccc32)cc1` (stereo unspecified), which lipid storage change, negative = inhibition is on record?
Answer: inconclusive: -30.9%

Question: With `Cc1cccc(N2CCN(C(=O)c3ccc(CS(=O)Cc4ccc(Cl)cc4)o3)CC2)c1C` (stereo unspecified) as the compound, how does the “outcome” value read?
Answer: inactive [at 46.1 µM]

Question: For `O=C(COC(=O)c1ccc(Cl)c(S(=O)(=O)NCc2ccccc2)c1)NC1CC1`, which Potency is on record?
Answer: inconclusive: 29.1 µM [activator, single point]

Question: With `CC(C)N(C(=O)CN1C(=O)NC(c2ccccc2)(c2ccccc2)C1=O)C(C)C` as the compound, how does the lipid storage change, negative = inhibition read?
Answer: inconclusive: -112%

Question: Which lipid storage change, negative = inhibition does the source give for `COC(=O)CSc1nnc(C)c(=O)[nH]1` here?
Answer: inconclusive: -156%

Question: With `COc1ccc(N2C(=O)CC(N3CCCC4CCCCC43)C2=O)cc1` (stereo unspecified) as the compound, how does the lipid storage change, negative = inhibition read?
Answer: inconclusive: -14.2%

Question: For `NC1=NC(=O)/C(=C\c2ccc(O)c([N+](=O)[O-])c2)S1`, which Potency is on record?
Answer: inconclusive: 1.3 µM [activator, full curve, poor fit]

Question: For `COC(=O)c1ccc(N2CCOCC2)c(NC(=O)c2ccc3c(c2)OCCO3)c1`, which lipid storage change, negative = inhibition is on record?
Answer: inconclusive: 17.7%

Question: For `CNc1ccc(Br)cc(C(=O)/C=C/c2ccc3c(c2)OCO3)c1=O`, which Potency is on record?
Answer: inconclusive: 23.1 µM [falling, partial curve]

Question: With `Cn1c(-c2ccc(CN3CCCCC3)o2)nc2ccccc21` as the compound, how does the lipid storage change, negative = inhibition read?
Answer: inconclusive: 35.6%

Question: Which Potency does the source give for `O=c1c2ccccc2nc2ccc(NCc3ccco3)nn12` here?
Answer: inconclusive: 8.2 µM [cytotoxic, partial curve, poor fit]

Question: With `CCOc1ccc(NS(=O)(=O)c2ccc(NC(=O)C3CC3)cc2)cc1` as the compound, how does the lipid storage change, negative = inhibition read?
Answer: inconclusive: -19.5%

Question: For `COc1cc(/C=C(\C#N)C(=O)N2CCOCC2)cc(Br)c1O`, which Potency is on record?
Answer: inconclusive: 1.84 µM [rising, partial curve]

Question: Which lipid storage change, negative = inhibition does the source give for `CCOC(=O)C1CCCN(C(=O)c2ccc(NS(=O)(=O)c3ccc4[nH]c(=O)[nH]c4c3)cc2)C1` (stereo unspecified) here?
Answer: inconclusive

Question: For `CC1(C)CC2C1CCC1(O)CC2(C)CCC1N(O)c1ccc(C(=O)NCCO)cn1` (stereo unspecified), which lipid storage change, negative = inhibition is on record?
Answer: inconclusive: -5.87%

Question: For `COc1ccc(/C=C2\OC(=S)N(C)C2=O)cc1`, which lipid storage change, negative = inhibition is on record?
Answer: inconclusive: -22.3%
